# Assay results published in patent publication US11192888B2, “Antibacterial compounds” (priority 2017, dated 2021).
# Some results were stated once for a whole list of compounds, not compound by compound. *1 amine or outer side, *2 acyl side, *3 side chain or, on linkers, in order; H or OH if unused. Where a SMILES comes first, the peptide text is derived from it. [ ]: non-standard residue; d: D form. dAla(ψthiazole) = C[C@@H](N[*:1])c1nc(C(=O)[*:2])cs1; Trp(4-Br) = N[C@@H](Cc1c[nH]c2cccc(Br)c12)C(=O)O; X1 = O=C(/C(=C/c1ccccc1)N[*:1])[*:2]; X2 = CC(C)/C=C(\N[*:1])C(=O)[*:2]; Sar = CNCC(=O)O
# Test system: B. multivorans ATCC17616
row,SMILES,gain in antimicrobial potency in comparison to compound 3
1,"C[C@H]1NC(=O)CNC(=O)[C@H](Cc2c[nH]c3cccc(Br)c23)NC(=O)[C@H](Cc2c[nH]c3ccccc23)NC(=O)c2csc(n2)[C@@H](C)NC(=O)CN(C)C(=O)/C(=C/c2ccccc2)NC1=O [Compound 12, Cyclo[D-Ala-Thz-Trp-Trp(4-Br)-Gly-D-Ala-Dhp-Sar]] (cyclo(G[dA][X1][Sar][dAla(ψthiazole)]W[Trp(4-Br)]))",1.5-1.6 fold
2,"CC(C)/C=C1\NC(=O)[C@@H](C)NC(=O)CNC(=O)[C@H](Cc2c[nH]c3cccc(Br)c23)NC(=O)[C@H](Cc2c[nH]c3ccccc23)NC(=O)c2csc(n2)[C@@H](C)NC(=O)CN(C)C1=O [Compound 14, Cyclo[D-Ala-Thz-Trp-Trp(4-Br)-Gly-D-Ala-Dhl-Sar]] (cyclo(G[dA][X2][Sar][dAla(ψthiazole)]W[Trp(4-Br)]))",1.5-1.6 fold
